The source of these data is patent US20050053985A1.

The assay addresses T1, HsSen34 (human) (UniProt Q9BSV6).
T1 sequence (looked up): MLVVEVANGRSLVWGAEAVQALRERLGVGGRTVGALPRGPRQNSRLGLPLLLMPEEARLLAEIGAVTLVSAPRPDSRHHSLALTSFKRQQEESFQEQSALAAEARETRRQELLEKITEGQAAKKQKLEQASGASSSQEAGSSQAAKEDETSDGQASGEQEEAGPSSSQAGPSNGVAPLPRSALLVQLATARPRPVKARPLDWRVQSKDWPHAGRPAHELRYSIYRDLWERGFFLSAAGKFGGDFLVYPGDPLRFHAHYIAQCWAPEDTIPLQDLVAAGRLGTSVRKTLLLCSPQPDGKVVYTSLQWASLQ
Briefly: co-purification with the His-Flag-tagged bait from stable 293 cells (anti-Flag beads, then Ni beads); SDS-PAGE, silver staining.

No constants are given. Whether binding was seen depends on the method and setting. Binding seen in cells or lysates may run through a third protein. Some binding calls cover weakened binding; strength is not graded here. Tags and fused reporters may be left off the sequences shown.

B1: His-Flag-HsClp1 (protein, human, UniProt Q92989 1-425, looked up, not shown: small tags and cut ends)
chain: MGEEANDDKKPTTKFELERETELRFEVEASQSVQLELLTGMAEIFGTELTRNKKFTFDAGAKVAVFTWHGCSVQLSGRTEVAYVSKDTPMLLYLNTHTALEQMRRQAEKEEERGPRVMVVGPTDVGKSTVCRLLLNYAVRLGRRPTYVELDVGQGSVSIPGTMGALYIERPADVEEGFSIQAPLVYHFGSTTPGTNIKLYNKITSRLADVFNQRCEVNRRASVSGCVINTCGWVKGSGYQALVHAASAFEVDVVVVLDQERLYNELKRDLPHFVRTVLLPKSGGVVERSKDFRRECRDERIREYFYGFRGCFYPHAFNVKFSDVKIYKVGAPTIPDSCLPLGMSQEDNQLKLVPVTPGRDMVHHLLSVSTAEGTEENLSETSVAGFIVVTSVDLEHQVFTVLSPAPRPLPKNFLLIMDIRFMDLK
As for B1, the binding result was “binds”.
